The list shows a part of the results. These are further read-outs of the screen, such as a control signal, another cell line or another target. No call is given for them. Compounds called inactive in the main read-out are mostly missing here. Words in brackets tell the shape of the fitted curve; partial curves, single points and poor fits give uncertain potencies.
Assay: qHTS Assay for Modulators of Lamin A Splicing
Settings: HeLa LMNA splicing GFP/RFP minigene ratio, 48 h
Outline: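 Read-out is the ratio of GFP to DsRed2 object intensity, acquired by 488 nm laser-scanning cytometry on HeLa lamin A-EGFP minigene reporter cells. Compound incubation 48 hrs at 37 °C in Opti-MEM with 2% FBS; DMSO 0.5% final.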

[1] = measured here: GFP splicing reporter channel
[2] = measured here: RFP viability control channel

Structure (SMILES)	AC50 [1]	AC50 [2]
O=C(Nc1cccc(Cl)c1)c1ccc2c(=O)n3c(nc2c1)CCCCC3	10 µM [rising, partial curve, poor fit]	12.6 µM [rising, partial curve]
COc1ccc2cc(C(=O)Nc3ccc(O)cc3)sc(=O)c2c1OC	–	22.4 µM [rising, single point]
CCc1c(C)c(C#N)c2nc3ccccc3n2c1NCc1ccccn1	–	31.6 µM [falling, partial curve, poor fit]
O=C(CSc1nc2ccccc2s1)NC1CCCc2ccccc21 (centres undefined)	–	35.5 µM [rising, single point]
COc1ccccc1-c1cc(C(F)(F)F)nc(S(=O)(=O)CCCC(=O)N2CCCCC2C)n1 (centres undefined)	35.5 µM [rising, single point]	22.4 µM [falling, single point]
Cc1cc(C)n2nc(SCC(=O)c3cc(C)n(-c4cc(C)on4)c3C)nc2n1	0.794 µM [rising, full curve, poor fit]	2.24 µM [rising, full curve]
COc1ccc(-n2c(=O)c3ccccc3n(CC(=O)Nc3cccc(OC)c3)c2=O)cc1	–	22.4 µM [falling, single point]
O=[N+]([O-])c1ccc(Oc2cccc3cccnc23)c([N+](=O)[O-])c1	14.1 µM [rising, single point]	–
COC(=O)c1cc(-c2c(C)oc3cc(OC(C)C)ccc3c2=O)c(C)o1	17.8 µM [rising, single point]	35.5 µM [rising, single point]
COc1cc(NC(=S)NC(=O)c2ccc(C(C)(C)C)cc2)ccc1NC(=O)c1cccs1	–	1.78 µM [rising, full curve]
COc1cc(-c2nc3ccccc3c(=O)n2N)cc(OC)c1OC	–	0.00891 µM [falling, full curve, poor fit]
N#Cc1ccc(/C=C/C(=O)c2ccco2)cc1	14.1 µM [rising, single point]	–
COc1cc(C(=O)OCc2ccc(C)cc2)cc(NC(=O)c2cccs2)c1OC	6.31 µM [rising, partial curve]	–
Cc1cc(Cl)c(OCCCSc2nc(C)cc(=O)[nH]2)c(Br)c1	–	31.6 µM [rising, single point]
COc1ccc(/C=C/C(=O)OCCC(C)C)cc1	–	17.8 µM [rising, single point]
CC1=C(C(=O)OCc2ccccc2)C(c2ccccn2)c2c(n(C)c(=O)n(C)c2=O)N1 (centres undefined)	10 µM [rising, single point]	–
CSc1ccc(S(=O)(=O)Nc2ccc(N3CCOCC3)c(Cl)c2)cc1	–	15.8 µM [rising, partial curve]
C=CS(=O)(=O)c1sc(Cl)c(N2CCOCC2)c1[N+](=O)[O-]	10 µM [falling, partial curve]	11.2 µM [falling, partial curve]
CCOC(=O)c1sc2ccccc2c1S(=O)(=O)Nc1ccc(N(C)C)cc1	–	10 µM [rising, partial curve, poor fit]

Structure (SMILES)	AC50 [1]	AC50 [2]
C#C[C@]1(O)CC[C@@H]2[C@H]3CCC4=CCCC[C@@H]4[C@@H]3CC[C@@]21C	2.82 µM [falling, full curve]	2.82 µM [falling, full curve, poor fit]
CCn1cc[n+](C)c1P(c1ccccc1)c1ccccc1	–	12.6 µM [rising, partial curve, poor fit]
Cc1ccccc1C(=O)Nc1nnc(-c2ccc(F)cc2)o1	–	12.6 µM [rising, single point]
O=C1/C(=C/c2ccccc2)NC(=S)N1C(c1ccccc1)c1ccccc1	–	35.5 µM [rising, single point]
Cc1cc(C)cc(OCC(=O)NCC(c2ccc(Cl)cc2)N2CCCCC2)c1 (centres undefined)	31.6 µM [falling, single point]	35.5 µM [falling, single point]
Cc1ccccc1Cn1cc(NC(=O)c2cc(-c3ccco3)on2)cn1	4.47 µM [falling, full curve, poor fit]	–
Cc1ccccc1NC(=S)NCc1ccc2[nH]c3c(c2c1)CCCC3	–	35.5 µM [rising, single point]
Cc1ccc(S(=O)(=O)N2CCOCC2)cc1NC(=O)CSc1nc2ccccc2c(=O)n1Cc1ccccc1	3.16 µM [rising, full curve, poor fit]	–
COc1ccc(-n2cnnc2SCc2ncc(-c3ccccc3)o2)cc1	17.8 µM [rising, partial curve, poor fit]	–
CC(C)CNS(=O)(=O)c1ccc(CCC(=O)N2CCN(Cc3ccc4c(c3)OCO4)CC2)cc1	0.631 µM [rising, partial curve]	20 µM [rising, partial curve]
Cc1cc(C)n(-c2cc(N3CCN(C(=O)c4cccc(F)c4)CC3)ccc2[N+](=O)[O-])n1	17.8 µM [rising, partial curve, poor fit]	35.5 µM [rising, single point]
COc1ccc(Br)cc1C(=O)Nc1ccccc1-c1ccccc1	–	15.8 µM [rising, single point]
O=C(CSc1ccsc1[N+](=O)[O-])N1CCCCCC1	0.00447 µM [rising, full curve, poor fit]	–
COc1cc(C2C(C#N)=C(N)N(Nc3ccccc3)C3=C2C(=O)CC(C)(C)C3)ccc1OCc1ccccc1 (centres undefined)	12.6 µM [falling, single point]	–
Cc1ccc(C(=O)c2cc([N+](=O)[O-])ccc2N2CC(C)OC(C)C2)cc1 (centres undefined)	–	6.31 µM [rising, partial curve]
C/C=C\C(=O)N(CC)c1ccccc1C	0.00794 µM [falling, full curve, poor fit]	3.16 µM [falling, single point]
O=C(CSCc1ccc(Br)cc1)Nc1ccc(S(=O)(=O)N2CCOCC2)cc1	14.1 µM [rising, single point]	–
COc1cc(S(=O)(=O)NCCOC23CC4CC(CC(C4)C2)C3)c(OC)cc1Cl	11.2 µM [rising, partial curve]	7.08 µM [rising, partial curve]
COc1cccc(C(=O)NCc2ccc3c(c2)CCN3C(=O)c2ccncc2)c1	5.62 µM [rising, single point]	–

Structure (SMILES)	AC50 [1]	AC50 [2]
Cc1cc(NC(=O)CSc2cc(Cl)ccc2Cl)n(-c2ccccc2)n1	–	22.4 µM [rising, single point]
Cn1c(=O)[nH]c2cc3ccccc3cc21	20 µM [falling, partial curve, poor fit]	15.8 µM [falling, partial curve]
COc1ccc(C(=O)NC(=S)NNC(=O)COc2ccccc2)cc1	–	15.8 µM [rising, single point]
Cc1nc2cc(-c3ccc(Cl)cc3)nn2c(C)c1CCC(=O)NC(C)c1ccc2c(c1)OCCO2 (centres undefined)	15.8 µM [falling, single point]	–
Cc1ccc(C(=O)NC(C#N)=C(Cl)Cl)cc1	7.94 µM [falling, partial curve]	12.6 µM [falling, partial curve]
O=S(=O)(NCC1CCCO1)c1cnc(Cl)c(Cl)c1 (centres undefined)	5.01 µM [rising, single point]	–
CN1CCN(C(=O)c2ccc(CN(c3ccccc3)S(=O)(=O)c3ccccc3)cc2)CC1	–	7.08 µM [falling, full curve, poor fit]
Clc1ccc(-c2nc3cnccn3c2Nc2ccc3c(c2)OCO3)cc1	12.6 µM [rising, single point]	12.6 µM [rising, partial curve]
COc1ccc(-n2c(=O)c(CCC(=O)N(C)Cc3ccccc3C)nc3ccccc32)cc1	35.5 µM [falling, partial curve, poor fit]	4.47 µM [falling, partial curve, poor fit]
CC(C)CC(=O)N1CCN(C(=O)CCC2CCCC2)CC1	20 µM [rising, single point]	–
O=C(NCCC1=CCCCC1)C1CCN(C(=O)Cc2ccccc2)CC1	–	17.8 µM [falling, partial curve]
Cc1ccc(-c2c(C#N)c(N)n3c(nc4ccccc43)c2C#N)cc1	–	12.6 µM [rising, partial curve]
CN1CCN(C2(CNC(=O)c3ccc(C(C)(C)C)cc3)CCCCC2)CC1	35.5 µM [falling, single point]	–
FC(F)(F)c1ccc(NC(=S)NC2CCCCC2)cc1	–	35.5 µM [rising, single point]
Cn1c(=O)c2c(nc(Br)n2CCc2ccccc2)n(C)c1=O	–	11.2 µM [rising, single point]
CCSc1nc(-c2ccccc2)c(-c2ccccc2)n1CC(O)CO (centres undefined)	0.501 µM [falling, partial curve]	–
O=C(NCc1ccccc1)c1ccc(-c2ccc(F)cc2)o1	31.6 µM [rising, single point]	35.5 µM [rising, single point]
O=C(Nc1ccn(Cc2ccc(Cl)cc2)n1)c1ccccc1	–	14.1 µM [rising, partial curve, poor fit]
COc1ccc(N2C(=O)CC(Sc3nc4c(cc3C#N)CCC4)C2=O)cc1 (centres undefined)	14.1 µM [falling, single point]	17.8 µM [falling, partial curve, poor fit]

2 records picked at random from those above, as already listed:
Structure (SMILES)	AC50 [1]	AC50 [2]
Cn1c(=O)c2c(nc(Br)n2CCc2ccccc2)n(C)c1=O	–	11.2 µM [rising, single point]
Cc1nc2cc(-c3ccc(Cl)cc3)nn2c(C)c1CCC(=O)NC(C)c1ccc2c(c1)OCCO2 (centres undefined)	15.8 µM [falling, single point]	–
